Measured values reported in PMC11194573.

T1: DefA wild type, fused to the binding domain of the Gal4 regulator (plasmid pGBDU) (Bacillus subtilis) (UniProt P94462)
T1 sequence: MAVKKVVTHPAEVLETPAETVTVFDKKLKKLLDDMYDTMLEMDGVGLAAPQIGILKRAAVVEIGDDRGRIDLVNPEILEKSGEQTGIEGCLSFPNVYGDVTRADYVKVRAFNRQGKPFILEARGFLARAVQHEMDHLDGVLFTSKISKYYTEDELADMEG


Assays:
[1] = biological target: T1, DefA wild type, fused to the binding domain of the Gal4 regulator (plasmid pGBDU) (Bacillus subtilis); test: two-hybrid; yeast two-hybrid; PtkA wild type on the Gal4 activating domain (pGAD), DefA wild type and point mutants on the Gal4 binding domain (pGBDU); diploids from a and α haploid strains
[2] = biological target: PtkA, fused to the binding domain of the Gal4 regulator (plasmid pGBDU) (Bacillus subtilis); test: two-hybrid; yeast two-hybrid; PtkA or PtkA K59M as bait (Gal4 binding domain, pGBDU), DefA variants as prey (Gal4 activating domain, pGAD); diploids from a and α haploid strains; growth on –LUH selective medium
[3] = biological target: PtkA K59M, fused to the binding domain of the Gal4 regulator (plasmid pGBDU) (Bacillus subtilis); test: as above
[4] = biological target: PtkA, fused to the binding domain of the Gal4 regulator (plasmid pGBDU) (Bacillus subtilis); test: two-hybrid; two-hybrid assays of DefB with PtkA, no figure cited; vectors and orientation not stated

Row | binding [2] | Molecule | other results
1 | – | PtkA wild type, fused to the activating domain of the Gal4 regulator (plasmid pGAD) (Bacillus subtilis) (enzyme) | binding [1]: binds
2 | binds | DefA 51–155, fused to the activating domain of the Gal4 regulator (plasmid pGAD) (domain or fragment, UniProt P94462 51-155) QIGILKRAAVVEIGDDRGRIDLVNPEILEKSGEQTGIEGCLSFPNVYGDVTRADYVKVRAFNRQGKPFILEARGFLARAVQHEMDHLDGVLFTSKISKYYTEDEL | –
3 | binds | DefA wild type, fused to the activating domain of the Gal4 regulator (plasmid pGAD) (enzyme, UniProt P94462 1-160) MAVKKVVTHPAEVLETPAETVTVFDKKLKKLLDDMYDTMLEMDGVGLAAPQIGILKRAAVVEIGDDRGRIDLVNPEILEKSGEQTGIEGCLSFPNVYGDVTRADYVKVRAFNRQGKPFILEARGFLARAVQHEMDHLDGVLFTSKISKYYTEDELADMEG | binding [3]: binds
4 | binds | DefA 59–155, fused to the activating domain of the Gal4 regulator (plasmid pGAD) (domain or fragment, UniProt P94462 59-155) AVVEIGDDRGRIDLVNPEILEKSGEQTGIEGCLSFPNVYGDVTRADYVKVRAFNRQGKPFILEARGFLARAVQHEMDHLDGVLFTSKISKYYTEDEL | –
5 | binds | DefA 59–160, fused to the activating domain of the Gal4 regulator (plasmid pGAD) (domain or fragment, UniProt P94462 59-160) AVVEIGDDRGRIDLVNPEILEKSGEQTGIEGCLSFPNVYGDVTRADYVKVRAFNRQGKPFILEARGFLARAVQHEMDHLDGVLFTSKISKYYTEDELADMEG | –
6 | – | DefB (enzyme, UniProt Q45495 1-184) MITMENIVRDGHPALRETAEPVELPPTDAEKQQLADMIEFVKNSQNPELAEKYKLRPGVGLAAPQINIKKRMIAVHAEDASGKLYSYALFNPKIVSHSVEKSYLTSGEGCLSVDEAIPGYVPRYARIRVKGTTLEGENIDIRLKGFPAIVFQHEIDHLNGVMFYDHIDKENPFKEPENAIAIER | binding [4]: no binding

Results are given in words; binding and its absence hold for the method and conditions named. For some of these results: A result given as binding can be weak or reduced; the word gives no strength. For some of these results: Where a sequence is shown, tags or fusion partners need not be part of it.
